These results are taken from patent US20190256582A1.

For assay [1], the target named is DENV1 E protein (dengue virus serotype 1 (DENV1)). Kind of assay: ELISA.
Assay [2] concerns the target DENV2 E protein (dengue virus serotype 2 (DENV2)). Kind of assay: ELISA.
The target of assay [3] is DENV3 E protein (dengue virus serotype 3 (DENV3)). Nature of the assay: ELISA.
Assay [4] deals with DENV4 E protein (dengue virus serotype 4 (DENV4)). Kind of assay: ELISA.
Assay [5] addresses DENV1 NS1 protein (dengue virus serotype 1 (DENV1)). Kind of assay: ELISA.
In assay [6] the target is DENV2 NS1 protein (dengue virus serotype 2 (DENV2)). Nature of the assay: ELISA.
The target of assay [7] is DENV3 NS1 protein (dengue virus serotype 3 (DENV3)). Nature of the assay: ELISA.
The target in assay [8] is DENV4 NS1 protein (dengue virus serotype 4 (DENV4)). Kind of assay: ELISA.
Assay [9] concerns the target ZIKV NS1 protein (Zika virus (ZIKV)). Kind of assay: ELISA.
Assay [10] has the same target. Nature of the assay: BLI (Octet), ZIKV NS1 immobilised on APS sensor.

These are yes or no findings as the source states them, for the method shown. For some assays here: Binding calls can cover weak binding; strength is not graded here.

B1: ZKA185 (antibody, V domains shown)
VH: EVQLVQSGAEVKKPGESLRISCKGSGYSFTSYWITWVRQMPGKGLEWMAKFDPSDSQTNYSPSFQGHVTISVDKSISTAYLQWSSLKASDTAMYYCARRYCSSSSCYVDNWGQGTLVTIFS
VL: SYELTQPPSVSVSPGQTARITCSGDALPNKFAYWYRQKSGQAPVLVIYEDNKRPSGIPERFSGSSSGTMATLTISGAQVEDEADYHCYSTDSSSNPLGVFGGGTKLTVL
For the molecule B1, the binding result in [1], in [2], in [3] and in assay [4] was “no binding” throughout.

B2: ZKA35 (antibody, V domains shown)
VH: QVQLQESGPGLVKPSQTLSLTCTVSGGSISTGGYYWSWIRQHPGKGLEWIGYIYYSGNTYYNPSLKSRVTISVDTSKKQFSLKLSSVTAADTAVYYCAKGGGRERPFDYWGQGTLVTVSS
VL: QSVLTQPPSASGTPGQRVTISCSGSSSNIGRNYVDWYQQLPGTAPKLLIYRNNQRPSGVPERFSGSKSGTSASLAISGLRSEDEADYYCVAWDDSRSGFVVFGGGTKVTVL
On to B2, for which the binding entry is recorded as “no binding” in assay [5]; “no binding” in assay [6]; “no binding” in assay [7]; “no binding” in assay [8]; “binds” in assay [9]; “binds” in assay [10].

B3: ZKA230 (antibody, V domains shown)
VH: QVQLQESGPGLVKPSETLSLTCAVSGGSISSDYWSWIRQPPGKGLEWIGYIYYSGSTNYNPSLKSRVTISVDTSKNHFSLKLNSVTAADTAVYYCARRRKYDSLWGSFAFDIWGQGTMVTVSS
VL: QSVLTQPPSASGTPGQRVTISCSGSSSNIGGNYVYWYQQLPGTAPKLLICINDHRPSGVPDRFSGSKSGTSASLAISGLQSEDEADYYCATWDDSLGGLVFGGGTKLTVL
Take B3: the binding entry in [1], in assay [2], in assay [3] and in [4] was “no binding” each time.
